This is one part of the list.
How the values were obtained:
Assay in all cases: log2 fold change, soluble protein after heating vs DMSO (PISA); higher = thermal stabilisation; K562 lysate, 10 uM; active = over 0.2 and 3.5 SD of the protein, either way, in both replicates (recomputed)
alvocidib = compound: CN1CC[C@H](c2c(O)cc(O)c3c(=O)cc(-c4ccccc4Cl)oc23)[C@H](O)C1 [alvocidib]
How it was run: (§1)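 Values give the log-two fold change in thermal stability against solvent controls, from duplicates. Crude K562 extract at 1 mg/mL protein, made by dounce homogenisation in PBS pH 7.4 with 1 mM MgCl2, was treated with 10 μM compound for 30 min. After 3 min heating across 48°C-58°C, aliquots were pooled, adjusted to 0.5% NP-40 at 4°C and centrifuged at 21,000xg for 90 min. The supernatant was measured by TMTpro 16plex LC-MS/MS with channel sums equalised.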

Amino acid sequences for entries named in this document (tags omitted). A change or cut given only in a name is not applied to a line headed by its entry.
UniProt Q8N3U4: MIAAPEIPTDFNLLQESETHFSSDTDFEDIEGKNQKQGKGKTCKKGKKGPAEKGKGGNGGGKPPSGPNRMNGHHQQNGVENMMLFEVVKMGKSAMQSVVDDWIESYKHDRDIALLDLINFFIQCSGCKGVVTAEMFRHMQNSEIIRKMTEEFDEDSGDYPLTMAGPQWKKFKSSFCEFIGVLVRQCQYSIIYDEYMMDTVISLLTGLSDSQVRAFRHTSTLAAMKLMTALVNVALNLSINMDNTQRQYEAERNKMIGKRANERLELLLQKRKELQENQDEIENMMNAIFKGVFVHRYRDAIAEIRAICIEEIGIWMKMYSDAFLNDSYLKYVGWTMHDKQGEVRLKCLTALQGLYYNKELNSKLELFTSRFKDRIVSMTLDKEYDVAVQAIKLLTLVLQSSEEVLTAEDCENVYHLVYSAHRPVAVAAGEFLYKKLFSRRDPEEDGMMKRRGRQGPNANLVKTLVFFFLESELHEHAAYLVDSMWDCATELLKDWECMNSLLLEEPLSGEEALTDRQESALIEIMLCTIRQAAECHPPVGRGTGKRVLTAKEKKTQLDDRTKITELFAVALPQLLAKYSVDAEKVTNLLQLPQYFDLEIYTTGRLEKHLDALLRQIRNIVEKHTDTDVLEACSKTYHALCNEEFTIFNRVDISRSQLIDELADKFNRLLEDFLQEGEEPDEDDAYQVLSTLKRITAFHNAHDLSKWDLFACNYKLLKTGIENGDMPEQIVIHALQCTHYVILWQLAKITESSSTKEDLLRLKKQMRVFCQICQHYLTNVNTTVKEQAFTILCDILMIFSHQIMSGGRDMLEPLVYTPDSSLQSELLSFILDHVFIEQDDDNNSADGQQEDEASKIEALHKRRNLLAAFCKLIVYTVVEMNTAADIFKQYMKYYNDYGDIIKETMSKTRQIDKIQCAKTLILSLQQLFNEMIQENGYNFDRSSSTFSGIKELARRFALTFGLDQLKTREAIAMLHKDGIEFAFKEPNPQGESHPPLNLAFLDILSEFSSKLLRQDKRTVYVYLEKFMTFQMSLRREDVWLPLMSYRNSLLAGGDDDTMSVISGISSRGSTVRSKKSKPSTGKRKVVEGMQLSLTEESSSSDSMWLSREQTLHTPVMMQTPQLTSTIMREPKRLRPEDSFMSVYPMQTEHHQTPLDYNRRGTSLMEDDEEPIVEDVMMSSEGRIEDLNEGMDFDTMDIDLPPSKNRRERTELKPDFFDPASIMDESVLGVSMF
UniProt Q9BWW4: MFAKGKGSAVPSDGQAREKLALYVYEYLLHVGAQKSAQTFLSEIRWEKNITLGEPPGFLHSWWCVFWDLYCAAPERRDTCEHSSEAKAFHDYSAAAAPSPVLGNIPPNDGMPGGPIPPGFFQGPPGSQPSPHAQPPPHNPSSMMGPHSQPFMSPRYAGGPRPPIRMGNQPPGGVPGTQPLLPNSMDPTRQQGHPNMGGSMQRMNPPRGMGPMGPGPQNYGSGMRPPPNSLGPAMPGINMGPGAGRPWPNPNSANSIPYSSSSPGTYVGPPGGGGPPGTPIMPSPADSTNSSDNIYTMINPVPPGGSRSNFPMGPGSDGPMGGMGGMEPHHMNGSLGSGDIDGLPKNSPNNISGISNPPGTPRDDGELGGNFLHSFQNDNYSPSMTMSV
UniProt Q04837: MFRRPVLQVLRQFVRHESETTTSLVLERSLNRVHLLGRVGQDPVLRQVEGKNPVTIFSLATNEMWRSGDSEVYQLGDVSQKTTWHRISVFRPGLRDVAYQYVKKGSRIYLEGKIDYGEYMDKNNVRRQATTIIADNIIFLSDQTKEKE
UniProt Q9UHB9: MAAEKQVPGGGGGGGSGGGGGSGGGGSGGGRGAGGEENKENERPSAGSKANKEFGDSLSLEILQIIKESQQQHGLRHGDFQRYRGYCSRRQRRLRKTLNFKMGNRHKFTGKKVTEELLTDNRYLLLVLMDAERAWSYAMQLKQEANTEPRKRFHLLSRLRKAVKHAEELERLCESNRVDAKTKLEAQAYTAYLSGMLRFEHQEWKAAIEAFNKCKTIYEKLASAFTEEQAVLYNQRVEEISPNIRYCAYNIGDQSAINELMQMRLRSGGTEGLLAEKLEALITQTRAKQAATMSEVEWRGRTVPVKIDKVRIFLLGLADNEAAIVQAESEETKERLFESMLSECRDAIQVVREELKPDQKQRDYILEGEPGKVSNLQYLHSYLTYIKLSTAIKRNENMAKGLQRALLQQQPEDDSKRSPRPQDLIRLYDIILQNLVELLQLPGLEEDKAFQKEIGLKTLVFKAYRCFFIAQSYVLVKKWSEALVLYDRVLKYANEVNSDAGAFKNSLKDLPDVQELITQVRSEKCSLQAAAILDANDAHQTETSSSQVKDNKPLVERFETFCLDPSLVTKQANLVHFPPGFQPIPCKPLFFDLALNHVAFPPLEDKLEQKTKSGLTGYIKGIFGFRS
UniProt Q08AE8, whole entry, looked up: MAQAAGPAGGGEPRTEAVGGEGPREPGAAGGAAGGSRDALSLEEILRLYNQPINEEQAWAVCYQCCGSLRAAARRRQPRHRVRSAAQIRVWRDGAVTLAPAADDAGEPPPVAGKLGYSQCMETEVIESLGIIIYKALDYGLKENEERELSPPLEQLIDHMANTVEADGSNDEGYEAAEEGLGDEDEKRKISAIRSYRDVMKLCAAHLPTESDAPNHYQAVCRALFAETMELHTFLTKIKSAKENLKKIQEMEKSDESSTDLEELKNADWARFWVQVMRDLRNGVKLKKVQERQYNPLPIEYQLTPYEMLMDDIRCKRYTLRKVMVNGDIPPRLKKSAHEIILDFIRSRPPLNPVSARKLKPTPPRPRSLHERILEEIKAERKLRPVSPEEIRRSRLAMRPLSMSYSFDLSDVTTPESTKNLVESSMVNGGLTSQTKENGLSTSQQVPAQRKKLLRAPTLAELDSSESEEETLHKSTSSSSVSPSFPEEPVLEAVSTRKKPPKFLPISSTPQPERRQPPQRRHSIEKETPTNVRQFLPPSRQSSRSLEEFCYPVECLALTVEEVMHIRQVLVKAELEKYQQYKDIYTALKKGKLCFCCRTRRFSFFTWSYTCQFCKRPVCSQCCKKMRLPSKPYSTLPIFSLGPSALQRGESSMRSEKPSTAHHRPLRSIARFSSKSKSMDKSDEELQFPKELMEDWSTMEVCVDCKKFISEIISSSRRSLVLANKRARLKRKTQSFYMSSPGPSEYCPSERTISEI
UniProt Q8NBT2: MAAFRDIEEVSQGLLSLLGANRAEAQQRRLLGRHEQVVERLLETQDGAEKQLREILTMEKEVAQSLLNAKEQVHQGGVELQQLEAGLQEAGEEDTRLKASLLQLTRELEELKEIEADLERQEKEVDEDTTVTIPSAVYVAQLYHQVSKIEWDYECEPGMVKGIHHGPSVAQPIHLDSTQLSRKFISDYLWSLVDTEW
UniProt Q9C004: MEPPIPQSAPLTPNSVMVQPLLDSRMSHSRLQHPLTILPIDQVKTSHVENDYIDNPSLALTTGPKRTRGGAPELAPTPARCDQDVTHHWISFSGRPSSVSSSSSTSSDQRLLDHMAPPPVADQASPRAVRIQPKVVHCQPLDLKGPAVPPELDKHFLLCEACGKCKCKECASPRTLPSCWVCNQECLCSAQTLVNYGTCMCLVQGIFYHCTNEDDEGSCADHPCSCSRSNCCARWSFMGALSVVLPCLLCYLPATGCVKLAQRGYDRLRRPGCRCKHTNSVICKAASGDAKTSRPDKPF
UniProt P37108: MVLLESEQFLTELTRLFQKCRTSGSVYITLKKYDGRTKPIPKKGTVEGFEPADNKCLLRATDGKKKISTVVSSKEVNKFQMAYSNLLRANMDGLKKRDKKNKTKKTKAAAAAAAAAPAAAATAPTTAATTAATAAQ
UniProt Q8IYB3: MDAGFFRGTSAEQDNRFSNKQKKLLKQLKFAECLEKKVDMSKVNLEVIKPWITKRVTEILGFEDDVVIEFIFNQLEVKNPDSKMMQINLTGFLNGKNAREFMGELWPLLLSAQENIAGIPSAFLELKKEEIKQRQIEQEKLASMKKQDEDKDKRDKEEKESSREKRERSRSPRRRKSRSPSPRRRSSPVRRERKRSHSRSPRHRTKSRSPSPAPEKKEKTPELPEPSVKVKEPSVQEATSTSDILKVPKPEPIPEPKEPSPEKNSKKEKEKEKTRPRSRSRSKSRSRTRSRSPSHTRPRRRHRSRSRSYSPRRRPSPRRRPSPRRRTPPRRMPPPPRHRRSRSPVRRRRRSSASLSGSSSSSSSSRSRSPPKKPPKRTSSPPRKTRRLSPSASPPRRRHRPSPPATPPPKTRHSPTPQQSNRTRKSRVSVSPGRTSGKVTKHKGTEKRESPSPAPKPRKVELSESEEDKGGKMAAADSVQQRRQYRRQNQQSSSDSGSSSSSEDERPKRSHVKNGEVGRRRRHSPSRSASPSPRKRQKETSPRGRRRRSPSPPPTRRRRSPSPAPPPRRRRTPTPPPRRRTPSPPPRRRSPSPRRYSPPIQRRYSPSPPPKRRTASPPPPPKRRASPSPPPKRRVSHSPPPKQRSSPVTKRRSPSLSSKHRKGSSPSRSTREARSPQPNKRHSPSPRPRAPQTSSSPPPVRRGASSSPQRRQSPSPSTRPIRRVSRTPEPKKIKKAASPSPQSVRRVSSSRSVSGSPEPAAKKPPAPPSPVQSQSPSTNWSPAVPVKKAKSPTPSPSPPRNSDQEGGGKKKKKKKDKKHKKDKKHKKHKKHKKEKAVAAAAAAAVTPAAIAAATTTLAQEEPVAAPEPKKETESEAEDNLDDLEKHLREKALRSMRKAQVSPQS
UniProt Q9NUL3: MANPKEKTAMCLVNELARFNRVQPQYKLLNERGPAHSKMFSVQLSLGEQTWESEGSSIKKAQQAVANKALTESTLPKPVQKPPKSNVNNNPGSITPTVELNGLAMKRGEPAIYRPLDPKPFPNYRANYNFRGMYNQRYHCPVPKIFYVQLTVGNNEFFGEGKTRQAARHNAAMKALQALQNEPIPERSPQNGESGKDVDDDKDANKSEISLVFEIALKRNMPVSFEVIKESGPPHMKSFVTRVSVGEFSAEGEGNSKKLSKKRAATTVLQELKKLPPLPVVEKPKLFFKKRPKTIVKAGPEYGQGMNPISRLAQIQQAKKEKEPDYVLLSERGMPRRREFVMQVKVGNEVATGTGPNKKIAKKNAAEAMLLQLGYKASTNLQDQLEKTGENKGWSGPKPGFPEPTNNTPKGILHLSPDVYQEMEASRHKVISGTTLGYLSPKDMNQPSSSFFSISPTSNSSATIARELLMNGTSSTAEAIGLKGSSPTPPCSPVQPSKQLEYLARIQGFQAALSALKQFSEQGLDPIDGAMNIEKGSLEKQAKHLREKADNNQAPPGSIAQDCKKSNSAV
UniProt Q13243: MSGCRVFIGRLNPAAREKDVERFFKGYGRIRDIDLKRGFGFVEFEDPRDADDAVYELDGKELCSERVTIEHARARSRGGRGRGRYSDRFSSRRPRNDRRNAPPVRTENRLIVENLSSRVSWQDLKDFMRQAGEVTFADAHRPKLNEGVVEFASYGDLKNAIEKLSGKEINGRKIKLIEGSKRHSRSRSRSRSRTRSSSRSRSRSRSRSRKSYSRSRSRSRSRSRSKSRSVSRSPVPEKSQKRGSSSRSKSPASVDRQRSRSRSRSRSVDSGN
UniProt P42229: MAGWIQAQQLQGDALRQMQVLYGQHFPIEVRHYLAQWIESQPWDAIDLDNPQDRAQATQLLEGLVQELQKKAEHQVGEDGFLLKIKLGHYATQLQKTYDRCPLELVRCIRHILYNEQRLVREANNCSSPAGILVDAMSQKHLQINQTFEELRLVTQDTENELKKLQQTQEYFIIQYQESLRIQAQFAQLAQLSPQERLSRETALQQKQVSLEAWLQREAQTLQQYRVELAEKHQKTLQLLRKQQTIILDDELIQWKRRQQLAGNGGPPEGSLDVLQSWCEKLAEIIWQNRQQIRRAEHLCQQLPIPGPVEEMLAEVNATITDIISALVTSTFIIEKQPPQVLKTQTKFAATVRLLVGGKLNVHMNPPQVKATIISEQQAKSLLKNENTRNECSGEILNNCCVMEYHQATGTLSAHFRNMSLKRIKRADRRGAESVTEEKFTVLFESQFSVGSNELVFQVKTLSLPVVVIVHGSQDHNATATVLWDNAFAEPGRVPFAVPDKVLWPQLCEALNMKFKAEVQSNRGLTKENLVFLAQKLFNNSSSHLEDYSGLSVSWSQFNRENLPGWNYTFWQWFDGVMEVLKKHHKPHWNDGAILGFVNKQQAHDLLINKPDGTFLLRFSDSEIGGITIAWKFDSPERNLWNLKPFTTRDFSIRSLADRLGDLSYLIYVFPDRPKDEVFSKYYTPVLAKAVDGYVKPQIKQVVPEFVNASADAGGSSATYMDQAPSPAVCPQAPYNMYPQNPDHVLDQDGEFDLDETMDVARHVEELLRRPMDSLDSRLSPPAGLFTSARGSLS

Tubastatin A = compound: CN1CCc2c(c3ccccc3n2Cc2ccc(C(=O)NO)cc2)C1 [Tubastatin A]
How it was run: as §1

[1] = compound: CNC(=O)C1=CC=CC=C1NC2=NC(=NC=C2Cl)NC3=C(C=C(C=C3)N4CCOCC4)OC
How it was run: as §1

defactinib = compound: CNC(=O)c1ccc(Nc2ncc(C(F)(F)F)c(NCc3nccnc3N(C)S(C)(=O)=O)n2)cc1 [defactinib]
How it was run: as §1

[2] = compound: CNc1nc(-c2ccc3c(N)n[nH]c3c2)cc(N2C[C@@H](C(=O)NC3CCCCC3)CC[C@H]2C)n1
How it was run: as §1

encorafenib = compound: COC(=O)N[C@@H](C)CNc1nccc(-c2cn(C(C)C)nc2-c2cc(Cl)cc(NS(C)(=O)=O)c2F)n1 [encorafenib]
How it was run: as §1

[3] = compound: COC(=O)[C@H](CCSC)NC(=O)C1=C(C=C(C=C1)NC[C@H](CS)N)C2=CC=CC=C2
How it was run: as §1

alisertib = compound: COc1cc(Nc2ncc3c(n2)-c2ccc(Cl)cc2C(c2c(F)cccc2OC)=NC3)ccc1C(=O)O [alisertib]
How it was run: as §1

[4] = compound: COc1cc2nc(-c3cc(F)ccc3O)nc(N[C@@H]3CNC[C@H]3C(C)(C)O)c2cc1OC
How it was run: as §1

gefitinib = compound: COc1cc2ncnc(Nc3ccc(F)c(Cl)c3)c2cc1OCCCN1CCOCC1 [gefitinib]
How it was run: as §1

lapatinib = compound: CS(=O)(=O)CCNCc1ccc(-c2ccc3ncnc(Nc4ccc(OCc5cccc(F)c5)c(Cl)c4)c3c2)o1 [lapatinib]
How it was run: as §1

pictilisib = compound: CS(=O)(=O)N1CCN(Cc2cc3nc(-c4cccc5[nH]ncc45)nc(N4CCOCC4)c3s2)CC1 [pictilisib]
How it was run: as §1

crizotinib = compound: C[C@@H](Oc1cc(-c2cnn(C3CCNCC3)c2)cnc1N)c1c(Cl)ccc(F)c1Cl [crizotinib]
How it was run: as §1

[5] = compound: C[C@H](C1=CC=C(C=C1)C(=O)NC2=C3C=CNC3=NC=C2)N
How it was run: as §1

duvelisib = compound: C[C@H](Nc1ncnc2nc[nH]c12)c1cc2cccc(Cl)c2c(=O)n1-c1ccccc1 [duvelisib]
How it was run: as §1

gandotinib = compound: Cc1cc(Nc2cc(CN3CCOCC3)c3nc(C)c(Cc4ccc(Cl)cc4F)n3n2)n[nH]1 [gandotinib]
How it was run: as §1

tozasertib = compound: Cc1cc(Nc2cc(N3CCN(C)CC3)nc(Sc3ccc(NC(=O)C4CC4)cc3)n2)n[nH]1 [tozasertib]
How it was run: as §1

doramapimod = compound: Cc1ccc(-n2nc(C(C)(C)C)cc2NC(=O)Nc2ccc(OCCN3CCOCC3)c3ccccc23)cc1 [doramapimod]
How it was run: as §1

bafetinib = compound: Cc1ccc(NC(=O)c2ccc(CN3CC[C@H](N(C)C)C3)c(C(F)(F)F)c2)cc1Nc1nccc(-c2cncnc2)n1 [bafetinib]
How it was run: as §1

[6] = compound: Cc1cccc(CC(=O)N2CCc3c2ccc(-c2cn(C)c4ncnc(N)c24)c3F)n1
How it was run: as §1

Measured: log2 fold change

STAT6 (UniProt P42226)
inactive: alvocidib -0.051 | Tubastatin A 0.004 | [1] 0.008 | defactinib -0.032 | [2] 0.139 | encorafenib 0.033 | [3] 0.014 | alisertib -0.033 | [4] -0.014 | gefitinib -0.011 | lapatinib 0.07 | pictilisib -0.035 | crizotinib -0.075 | [5] -0.018 | duvelisib -0.012 | gandotinib -0.028 | tozasertib -0.023 | doramapimod 0.041 | bafetinib -0.021 | [6] 0.056

STAG2 isoform 2 (UniProt Q8N3U4)
inactive: alvocidib 0.028 | Tubastatin A 0.001 | [1] 0.034 | defactinib -0.021 | [2] -0.01 | encorafenib 0.019 | [3] 0.007 | alisertib -0.005 | [4] -0.008 | gefitinib 0.004 | lapatinib 0.005 | pictilisib 0.004 | crizotinib 0.019 | [5] 0.011 | duvelisib 0.018 | gandotinib -0.007 | tozasertib -0.009 | doramapimod 0.03 | bafetinib -0.065 | [6] -0.018

SSBP3 (UniProt Q9BWW4)
inactive: alvocidib 0.028 | Tubastatin A 0.074 | [1] 0 | defactinib 0.072 | [2] 0.008 | encorafenib 0.032 | [3] 0.02 | alisertib 0.018 | [4] -0.016 | gefitinib -0.054 | lapatinib 0.039 | pictilisib -0.158 | crizotinib 0.018 | [5] -0.014 | duvelisib 0.019 | gandotinib -0.019 | tozasertib -0.041 | doramapimod 0.014 | bafetinib -0.06 | [6] 0.029

STAM (UniProt Q92783)
inactive: alvocidib 0.006 | Tubastatin A 0.023 | [1] 0.016 | defactinib -0.033 | [2] 0.015 | encorafenib 0.003 | [3] -0.043 | alisertib -0.023 | [4] -0.007 | gefitinib -0.017 | lapatinib 0.088 | pictilisib -0.007 | crizotinib 0.043 | [5] -0.032 | duvelisib 0.007 | gandotinib 0.038 | tozasertib -0.015 | doramapimod -0.006 | bafetinib 0.05 | [6] -0.008

SRSF4 (UniProt Q08170)
inactive: alvocidib 0.022 | Tubastatin A -0.04 | [1] -0.041 | defactinib -0.003 | [2] -0.127 | encorafenib 0.092 | [3] -0.03 | alisertib 0 | [4] -0.016 | gefitinib 0.01 | lapatinib 0.01 | pictilisib 0.001 | crizotinib 0.021 | [5] 0.023 | duvelisib 0.014 | gandotinib -0.133 | tozasertib 0.055 | doramapimod 0.041 | bafetinib 0.021 | [6] -0.103

SSBP1 (UniProt Q04837)
inactive: alvocidib -0.011 | Tubastatin A 0.041 | [1] -0.011 | defactinib 0.005 | [2] -0.004 | encorafenib -0.009 | [3] -0.001 | alisertib 0.008 | [4] 0.018 | gefitinib -0.007 | lapatinib -0.013 | pictilisib 0.017 | crizotinib 0.004 | [5] -0.049 | duvelisib -0.01 | gandotinib 0.046 | tozasertib 0.012 | doramapimod -0.006 | bafetinib 0.027 | [6] -0.001

2 records picked at random from the list so far, as already listed:
SSBP3 (UniProt Q9BWW4)
inactive: alvocidib 0.028 | Tubastatin A 0.074 | [1] 0 | defactinib 0.072 | [2] 0.008 | encorafenib 0.032 | [3] 0.02 | alisertib 0.018 | [4] -0.016 | gefitinib -0.054 | lapatinib 0.039 | pictilisib -0.158 | crizotinib 0.018 | [5] -0.014 | duvelisib 0.019 | gandotinib -0.019 | tozasertib -0.041 | doramapimod 0.014 | bafetinib -0.06 | [6] 0.029

STAG2 isoform 2 (UniProt Q8N3U4)
inactive: alvocidib 0.028 | Tubastatin A 0.001 | [1] 0.034 | defactinib -0.021 | [2] -0.01 | encorafenib 0.019 | [3] 0.007 | alisertib -0.005 | [4] -0.008 | gefitinib 0.004 | lapatinib 0.005 | pictilisib 0.004 | crizotinib 0.019 | [5] 0.011 | duvelisib 0.018 | gandotinib -0.007 | tozasertib -0.009 | doramapimod 0.03 | bafetinib -0.065 | [6] -0.018

More records.

SRP68 (UniProt Q9UHB9)
inactive: alvocidib 0.068 | Tubastatin A -0.034 | [1] -0.009 | defactinib 0.053 | [2] -0.006 | encorafenib 0.048 | [3] 0.011 | alisertib -0.019 | [4] 0.019 | gefitinib -0.013 | lapatinib 0.009 | pictilisib 0.027 | crizotinib -0.043 | [5] 0.19 | duvelisib -0.027 | gandotinib -0.145 | tozasertib -0.02 | doramapimod 0.066 | bafetinib -0.021 | [6] -0.115

SPIRE1 (UniProt Q08AE8)
active: [5] -0.281
inactive: alvocidib -0.101 | Tubastatin A 0.02 | [1] 0.038 | defactinib -0.024 | [2] 0.084 | encorafenib -0.046 | [3] -0.036 | alisertib 0.02 | [4] 0.076 | gefitinib 0.049 | lapatinib -0.019 | pictilisib 0.012 | crizotinib -0.072 | duvelisib -0.021 | gandotinib 0.128 | tozasertib -0.023 | doramapimod 0.151 | bafetinib -0.031 | [6] 0.134

SPC24 (UniProt Q8NBT2)
inactive: alvocidib 0.033 | Tubastatin A 0.023 | [1] 0.011 | defactinib 0.016 | [2] 0.004 | encorafenib 0.016 | [3] -0.025 | alisertib -0.04 | [4] 0.017 | gefitinib 0.01 | lapatinib 0.024 | pictilisib 0.043 | crizotinib 0.003 | [5] -0.035 | duvelisib -0.005 | gandotinib -0.025 | tozasertib 0.004 | doramapimod 0.004 | bafetinib -0.075 | [6] 0

SPRY4 (UniProt Q9C004)
inactive: alvocidib -0.027 | Tubastatin A 0.075 | [1] 0.046 | defactinib 0.048 | [2] 0.033 | encorafenib 0.031 | [3] -0.09 | alisertib -0.094 | [4] 0.024 | gefitinib -0.041 | lapatinib -0.022 | pictilisib -0.001 | crizotinib -0.046 | [5] -0.022 | duvelisib 0.009 | gandotinib 0.126 | tozasertib -0.032 | doramapimod 0.026 | bafetinib 0.032 | [6] 0.029

SRP14 (UniProt P37108)
inactive: alvocidib -0.009 | Tubastatin A 0.06 | [1] -0.011 | defactinib -0.057 | [2] 0.024 | encorafenib -0.009 | [3] -0.011 | alisertib 0.038 | [4] -0.002 | gefitinib 0.027 | lapatinib -0.006 | pictilisib 0.019 | crizotinib 0.018 | [5] -0.079 | duvelisib 0.007 | gandotinib 0.012 | tozasertib -0.015 | doramapimod 0.013 | bafetinib 0.02 | [6] 0.034

SRRM1 (UniProt Q8IYB3)
inactive: alvocidib -0.019 | Tubastatin A 0.02 | [1] -0.001 | defactinib -0.011 | [2] -0.006 | encorafenib 0.033 | [3] -0.06 | alisertib 0.016 | [4] -0.006 | gefitinib -0.031 | lapatinib 0.006 | pictilisib -0.002 | crizotinib 0.034 | [5] -0.019 | duvelisib -0.023 | gandotinib -0.063 | tozasertib -0.002 | doramapimod -0.124 | bafetinib -0.031 | [6] 0.03

STAU2 (UniProt Q9NUL3)
inactive: alvocidib 0.004 | Tubastatin A -0.133 | [1] 0.028 | defactinib 0.008 | [2] 0.025 | encorafenib 0.026 | [3] -0.004 | alisertib -0.008 | [4] 0.01 | gefitinib -0.011 | lapatinib -0.022 | pictilisib -0.019 | crizotinib -0.131 | [5] 0.054 | duvelisib 0.05 | gandotinib 0.005 | tozasertib -0.009 | doramapimod 0.023 | bafetinib -0.052 | [6] 0.03

SRSF5 (UniProt Q13243)
inactive: alvocidib -0.022 | Tubastatin A 0.019 | [1] 0.018 | defactinib -0.038 | [2] 0.002 | encorafenib -0.009 | [3] -0.004 | alisertib 0.009 | [4] -0.005 | gefitinib 0.028 | lapatinib -0.02 | pictilisib 0.03 | crizotinib -0.018 | [5] -0.036 | duvelisib -0.008 | gandotinib 0.037 | tozasertib 0.015 | doramapimod -0.009 | bafetinib -0.017 | [6] 0.007

STAT5A (UniProt P42229)
inactive: alvocidib 0.002 | Tubastatin A -0.064 | [1] 0.023 | defactinib 0.001 | [2] 0.038 | encorafenib 0 | [3] 0.024 | alisertib 0.006 | [4] 0.021 | gefitinib -0.003 | lapatinib -0.02 | pictilisib -0.011 | crizotinib -0.017 | [5] 0.027 | duvelisib -0.02 | gandotinib -0.043 | tozasertib 0.032 | doramapimod -0.003 | bafetinib -0.043 | [6] -0.016
